According to the supplement of paper PMC10849652:
This is one part of the list.

Amino acid sequences for entries named in this document (tags omitted). A change or cut given only in a name is not applied to a line headed by its entry.
UniProt P20073: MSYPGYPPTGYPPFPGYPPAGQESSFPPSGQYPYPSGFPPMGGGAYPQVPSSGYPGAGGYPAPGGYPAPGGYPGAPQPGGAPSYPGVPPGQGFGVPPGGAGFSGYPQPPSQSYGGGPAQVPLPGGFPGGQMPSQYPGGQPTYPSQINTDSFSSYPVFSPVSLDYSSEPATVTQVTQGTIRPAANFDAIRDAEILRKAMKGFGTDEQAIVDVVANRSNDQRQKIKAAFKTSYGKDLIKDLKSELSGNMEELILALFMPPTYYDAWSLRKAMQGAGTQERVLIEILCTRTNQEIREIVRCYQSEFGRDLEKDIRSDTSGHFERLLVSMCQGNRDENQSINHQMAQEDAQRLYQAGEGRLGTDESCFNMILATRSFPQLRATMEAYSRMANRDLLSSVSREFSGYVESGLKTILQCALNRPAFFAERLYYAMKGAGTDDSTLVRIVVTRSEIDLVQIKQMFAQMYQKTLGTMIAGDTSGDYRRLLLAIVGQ
UniProt Q68EM7: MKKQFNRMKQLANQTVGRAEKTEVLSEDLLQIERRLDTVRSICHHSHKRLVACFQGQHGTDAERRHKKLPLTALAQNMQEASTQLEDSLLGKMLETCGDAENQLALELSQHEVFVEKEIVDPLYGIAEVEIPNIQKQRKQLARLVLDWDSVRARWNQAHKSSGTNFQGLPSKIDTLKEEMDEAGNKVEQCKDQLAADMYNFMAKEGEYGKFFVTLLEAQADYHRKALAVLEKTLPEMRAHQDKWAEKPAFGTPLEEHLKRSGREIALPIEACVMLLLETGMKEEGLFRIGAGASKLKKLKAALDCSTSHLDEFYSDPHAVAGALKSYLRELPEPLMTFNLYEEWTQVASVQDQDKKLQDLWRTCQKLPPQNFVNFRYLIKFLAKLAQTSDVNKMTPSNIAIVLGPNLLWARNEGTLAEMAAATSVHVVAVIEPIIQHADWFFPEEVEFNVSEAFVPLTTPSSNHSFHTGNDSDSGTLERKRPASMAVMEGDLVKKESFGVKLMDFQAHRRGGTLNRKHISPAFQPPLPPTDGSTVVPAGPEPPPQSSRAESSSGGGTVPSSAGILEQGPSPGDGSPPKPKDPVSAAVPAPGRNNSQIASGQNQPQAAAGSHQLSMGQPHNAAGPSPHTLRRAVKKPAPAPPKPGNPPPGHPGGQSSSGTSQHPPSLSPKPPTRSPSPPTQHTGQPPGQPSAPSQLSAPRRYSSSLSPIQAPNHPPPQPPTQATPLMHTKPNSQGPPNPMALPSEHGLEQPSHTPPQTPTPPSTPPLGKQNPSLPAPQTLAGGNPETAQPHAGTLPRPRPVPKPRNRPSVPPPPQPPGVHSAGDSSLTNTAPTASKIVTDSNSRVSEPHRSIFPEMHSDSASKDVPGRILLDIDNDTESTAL
UniProt P04083: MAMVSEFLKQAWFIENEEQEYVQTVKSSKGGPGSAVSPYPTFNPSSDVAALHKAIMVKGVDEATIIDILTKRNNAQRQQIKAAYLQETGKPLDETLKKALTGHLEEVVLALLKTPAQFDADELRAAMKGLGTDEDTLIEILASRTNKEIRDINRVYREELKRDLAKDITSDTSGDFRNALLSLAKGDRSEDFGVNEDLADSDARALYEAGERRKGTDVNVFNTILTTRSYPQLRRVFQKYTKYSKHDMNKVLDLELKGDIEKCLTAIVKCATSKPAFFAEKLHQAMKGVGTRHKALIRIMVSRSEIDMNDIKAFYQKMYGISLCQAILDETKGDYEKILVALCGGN
UniProt Q9UJX5, whole entry, looked up: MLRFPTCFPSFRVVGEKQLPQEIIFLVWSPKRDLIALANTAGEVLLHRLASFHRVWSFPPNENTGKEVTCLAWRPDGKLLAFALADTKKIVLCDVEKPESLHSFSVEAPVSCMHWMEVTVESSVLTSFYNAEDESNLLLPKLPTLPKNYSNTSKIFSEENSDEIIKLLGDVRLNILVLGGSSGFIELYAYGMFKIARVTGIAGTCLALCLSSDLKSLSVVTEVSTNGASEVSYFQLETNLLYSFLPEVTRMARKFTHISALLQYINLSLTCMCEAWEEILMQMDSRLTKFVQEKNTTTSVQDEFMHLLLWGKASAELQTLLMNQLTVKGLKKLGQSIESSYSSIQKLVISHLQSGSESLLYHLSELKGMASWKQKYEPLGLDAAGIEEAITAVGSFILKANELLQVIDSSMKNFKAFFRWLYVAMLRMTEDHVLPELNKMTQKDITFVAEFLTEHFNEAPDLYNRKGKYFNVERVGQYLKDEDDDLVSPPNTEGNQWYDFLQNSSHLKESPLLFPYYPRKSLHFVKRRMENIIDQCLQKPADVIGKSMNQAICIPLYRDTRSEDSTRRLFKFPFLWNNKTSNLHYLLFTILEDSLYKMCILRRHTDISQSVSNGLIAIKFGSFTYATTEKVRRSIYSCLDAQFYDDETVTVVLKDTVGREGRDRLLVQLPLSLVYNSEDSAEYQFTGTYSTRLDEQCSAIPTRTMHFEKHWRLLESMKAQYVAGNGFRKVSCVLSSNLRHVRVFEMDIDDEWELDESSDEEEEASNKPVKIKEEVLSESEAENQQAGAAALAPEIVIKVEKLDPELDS
UniProt P02647, whole entry, looked up: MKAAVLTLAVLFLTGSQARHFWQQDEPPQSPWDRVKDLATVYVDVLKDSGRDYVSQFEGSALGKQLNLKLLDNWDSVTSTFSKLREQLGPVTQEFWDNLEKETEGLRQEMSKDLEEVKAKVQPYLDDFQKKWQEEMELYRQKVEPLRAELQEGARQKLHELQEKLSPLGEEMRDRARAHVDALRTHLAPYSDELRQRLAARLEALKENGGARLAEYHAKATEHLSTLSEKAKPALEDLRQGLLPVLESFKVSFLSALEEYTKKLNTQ
UniProt O14497, whole entry, looked up: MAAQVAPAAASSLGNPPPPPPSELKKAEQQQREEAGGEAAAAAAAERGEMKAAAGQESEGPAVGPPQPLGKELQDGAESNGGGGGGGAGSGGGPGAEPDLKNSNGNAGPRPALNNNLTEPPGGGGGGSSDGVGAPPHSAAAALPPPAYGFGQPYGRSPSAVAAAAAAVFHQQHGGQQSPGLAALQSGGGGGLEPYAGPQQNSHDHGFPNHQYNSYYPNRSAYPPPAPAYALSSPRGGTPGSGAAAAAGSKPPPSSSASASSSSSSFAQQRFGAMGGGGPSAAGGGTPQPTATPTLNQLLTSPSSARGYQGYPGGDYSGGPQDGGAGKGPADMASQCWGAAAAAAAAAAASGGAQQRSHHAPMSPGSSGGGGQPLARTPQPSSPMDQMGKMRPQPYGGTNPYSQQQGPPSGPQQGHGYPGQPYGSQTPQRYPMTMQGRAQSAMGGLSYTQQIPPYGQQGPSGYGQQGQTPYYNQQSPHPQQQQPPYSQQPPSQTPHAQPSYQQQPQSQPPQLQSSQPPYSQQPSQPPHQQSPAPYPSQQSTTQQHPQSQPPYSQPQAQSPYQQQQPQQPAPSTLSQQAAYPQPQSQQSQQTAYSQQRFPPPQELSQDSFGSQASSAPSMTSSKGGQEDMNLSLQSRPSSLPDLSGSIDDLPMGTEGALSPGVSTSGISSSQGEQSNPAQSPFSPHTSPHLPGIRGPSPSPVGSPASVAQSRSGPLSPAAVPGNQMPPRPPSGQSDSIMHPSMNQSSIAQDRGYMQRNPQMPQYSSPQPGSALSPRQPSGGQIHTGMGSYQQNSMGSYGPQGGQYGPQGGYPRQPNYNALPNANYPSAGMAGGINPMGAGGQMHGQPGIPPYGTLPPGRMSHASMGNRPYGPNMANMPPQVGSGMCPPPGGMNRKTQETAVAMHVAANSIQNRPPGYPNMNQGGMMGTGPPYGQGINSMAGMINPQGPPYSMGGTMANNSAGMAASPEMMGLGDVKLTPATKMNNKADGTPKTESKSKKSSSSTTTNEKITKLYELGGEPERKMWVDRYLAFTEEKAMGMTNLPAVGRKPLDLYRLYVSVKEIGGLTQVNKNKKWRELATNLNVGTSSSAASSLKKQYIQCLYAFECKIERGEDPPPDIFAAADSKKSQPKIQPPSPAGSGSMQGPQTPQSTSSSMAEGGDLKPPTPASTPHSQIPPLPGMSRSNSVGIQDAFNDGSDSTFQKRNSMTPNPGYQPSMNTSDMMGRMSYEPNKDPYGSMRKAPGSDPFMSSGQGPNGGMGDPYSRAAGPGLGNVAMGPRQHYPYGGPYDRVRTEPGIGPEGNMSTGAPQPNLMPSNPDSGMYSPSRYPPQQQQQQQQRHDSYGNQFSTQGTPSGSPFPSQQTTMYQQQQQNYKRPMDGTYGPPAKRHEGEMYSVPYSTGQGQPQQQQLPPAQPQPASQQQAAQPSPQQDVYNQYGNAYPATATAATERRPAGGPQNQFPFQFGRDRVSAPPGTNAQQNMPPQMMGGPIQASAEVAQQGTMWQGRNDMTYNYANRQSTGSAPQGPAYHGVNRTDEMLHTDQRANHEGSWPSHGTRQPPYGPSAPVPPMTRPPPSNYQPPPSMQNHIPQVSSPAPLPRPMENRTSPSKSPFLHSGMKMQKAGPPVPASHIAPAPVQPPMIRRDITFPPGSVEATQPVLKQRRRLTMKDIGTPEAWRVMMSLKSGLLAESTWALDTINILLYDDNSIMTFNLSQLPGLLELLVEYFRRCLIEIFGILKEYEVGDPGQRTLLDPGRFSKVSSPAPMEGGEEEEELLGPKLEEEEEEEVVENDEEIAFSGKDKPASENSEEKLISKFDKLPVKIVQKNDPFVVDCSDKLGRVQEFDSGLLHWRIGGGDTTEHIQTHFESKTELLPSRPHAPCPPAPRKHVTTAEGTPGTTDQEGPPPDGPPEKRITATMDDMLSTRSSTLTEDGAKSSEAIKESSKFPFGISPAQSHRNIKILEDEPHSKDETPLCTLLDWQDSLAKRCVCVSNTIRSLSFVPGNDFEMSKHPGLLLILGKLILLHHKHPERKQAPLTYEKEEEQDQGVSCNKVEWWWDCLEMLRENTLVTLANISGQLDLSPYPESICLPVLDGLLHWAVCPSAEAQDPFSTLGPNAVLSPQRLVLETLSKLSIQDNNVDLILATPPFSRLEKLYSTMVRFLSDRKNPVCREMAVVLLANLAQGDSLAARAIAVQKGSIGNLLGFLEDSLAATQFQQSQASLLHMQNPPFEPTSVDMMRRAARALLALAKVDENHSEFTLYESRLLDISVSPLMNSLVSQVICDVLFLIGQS
UniProt Q9BXS5: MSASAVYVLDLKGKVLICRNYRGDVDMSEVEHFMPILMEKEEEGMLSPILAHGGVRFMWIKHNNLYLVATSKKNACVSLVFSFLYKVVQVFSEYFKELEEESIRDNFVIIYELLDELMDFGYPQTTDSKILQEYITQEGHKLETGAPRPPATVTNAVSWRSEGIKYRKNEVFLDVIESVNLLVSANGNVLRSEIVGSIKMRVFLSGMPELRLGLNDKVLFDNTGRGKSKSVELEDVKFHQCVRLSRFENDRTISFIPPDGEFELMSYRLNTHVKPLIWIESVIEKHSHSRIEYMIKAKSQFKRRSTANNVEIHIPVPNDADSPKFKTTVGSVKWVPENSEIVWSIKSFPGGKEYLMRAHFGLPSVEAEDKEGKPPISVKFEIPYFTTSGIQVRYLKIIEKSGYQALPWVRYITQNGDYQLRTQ
UniProt O94973, whole entry, looked up: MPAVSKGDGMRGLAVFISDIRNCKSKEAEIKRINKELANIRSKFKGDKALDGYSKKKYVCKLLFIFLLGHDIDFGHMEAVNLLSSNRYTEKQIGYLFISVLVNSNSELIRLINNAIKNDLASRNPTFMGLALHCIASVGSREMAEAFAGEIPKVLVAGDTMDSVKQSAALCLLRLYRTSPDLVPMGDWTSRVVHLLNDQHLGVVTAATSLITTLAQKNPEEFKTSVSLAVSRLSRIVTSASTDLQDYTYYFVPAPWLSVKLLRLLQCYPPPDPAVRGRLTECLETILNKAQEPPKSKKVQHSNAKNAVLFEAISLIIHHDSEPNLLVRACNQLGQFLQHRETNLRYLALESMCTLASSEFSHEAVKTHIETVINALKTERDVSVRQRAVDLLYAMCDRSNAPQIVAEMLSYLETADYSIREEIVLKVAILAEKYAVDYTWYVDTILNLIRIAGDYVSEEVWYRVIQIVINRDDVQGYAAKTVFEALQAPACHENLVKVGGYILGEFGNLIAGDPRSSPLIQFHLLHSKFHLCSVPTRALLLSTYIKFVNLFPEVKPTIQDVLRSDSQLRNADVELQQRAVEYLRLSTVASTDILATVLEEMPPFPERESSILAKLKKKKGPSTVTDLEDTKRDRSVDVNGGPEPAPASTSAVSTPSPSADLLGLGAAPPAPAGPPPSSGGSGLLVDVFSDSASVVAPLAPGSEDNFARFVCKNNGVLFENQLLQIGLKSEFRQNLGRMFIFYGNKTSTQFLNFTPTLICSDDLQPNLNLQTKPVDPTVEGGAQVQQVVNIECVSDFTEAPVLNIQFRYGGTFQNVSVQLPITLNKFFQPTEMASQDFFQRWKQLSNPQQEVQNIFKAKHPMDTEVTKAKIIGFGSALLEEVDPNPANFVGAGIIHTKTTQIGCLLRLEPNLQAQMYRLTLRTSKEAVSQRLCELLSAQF

Assays:
Test in all cases: log2 fold change, soluble protein after heating vs DMSO (PISA); higher = thermal stabilisation; K562 cells, 10 uM, 30 min; active = over 0.2 and 3.5 SD of the protein, either way, in both replicates (recomputed)
[1] = compound: NC(=O)Nc1cc(-c2cccc(F)c2)sc1C(=O)N[C@H]1CCCNC1
Summary of the method: (§1)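 For each measurement, 10 μM compound was applied for 30 min to K562 cells at 2×10^6 cells/mL. Aliquots were heated for 3 min across 48°C-58°C, pooled, and extracted in PBS with 0.5% NP-40 at 4°C; the supernatant after 21,000xg for 90 min was soluble protein. This was quantified by TMTpro 16plex LC-MS/MS with channel sums equalised, and thermal stability was reported relative to control samples from duplicates, on a log2 fold-change scale.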

[2] = compound: NC(=O)c1cnc(N[C@@H]2CCCC[C@@H]2N)nc1Nc1cccc(-n2nccn2)c1
Summary of the method: as §1

[3] = compound: NC1(c2ccc(-c3nc4ccn5c(=O)[nH]nc5c4cc3-c3ccccc3)cc2)CCC1
Summary of the method: as §1

[4] = compound: NCC(=O)Nc1ccc(-n2nc(C(F)(F)F)cc2-c2ccc3c(ccc4ccccc43)c2)cc1
Summary of the method: as §1

entinostat = compound: Nc1ccccc1NC(=O)c1ccc(CNC(=O)OCc2cccnc2)cc1 [entinostat]
Summary of the method: as §1

vorinostat = compound: O=C(CCCCCCC(=O)Nc1ccccc1)NO [vorinostat]
Summary of the method: as §1

citarinostat = compound: O=C(CCCCCCNC(=O)c1cnc(N(c2ccccc2)c2ccccc2Cl)nc1)NO [citarinostat]
Summary of the method: as §1

silmitasertib = compound: O=C(O)c1ccc2c(c1)nc(Nc1cccc(Cl)c1)c1ccncc12 [silmitasertib]
Summary of the method: as §1

[5] = compound: O=C1NC(=O)C(c2cnc3ccccn23)=C1c1cn2c3c(cc(F)cc13)CN(C(=O)N1CCCCC1)CC2
Summary of the method: as §1

[6] = compound: c1cc(OCCN2CCCCC2)cc(-c2n[nH]c3ccc(-c4nnc[nH]4)cc23)c1
Summary of the method: as §1

Row | Target | log2 fold change [1] | log2 fold change [2] | log2 fold change [3] | log2 fold change [4] | log2 fold change (entinostat) | log2 fold change (vorinostat) | log2 fold change (citarinostat) | log2 fold change (silmitasertib) | log2 fold change [5] | log2 fold change [6]
1 | ARHGEF1 isoform 3 (UniProt Q92888) | inactive: 0.073 | inactive: 0.037 | inactive: 0.011 | inactive: 0.014 | inactive: 0.058 | inactive: 0.056 | inactive: 0.064 | inactive: 0.094 | inactive: 0.038 | inactive: -0.01
2 | ANKRD17 (UniProt O75179) | inactive: 0.014 | inactive: -0.158 | inactive: 0.003 | inactive: -0.15 | inactive: 0.033 | inactive: 0.071 | inactive: -0.068 | inactive: 0.042 | inactive: 0.229 | inactive: -0.084
3 | ANXA7 (UniProt P20073) | inactive: -0.024 | inactive: 0.008 | inactive: -0.102 | inactive: -0.027 | inactive: 0.019 | inactive: -0.001 | inactive: 0.052 | inactive: 0.022 | inactive: -0.046 | inactive: -0.021
4 | ARHGAP17 (UniProt Q68EM7) | inactive: -0.102 | inactive: -0.113 | inactive: -0.11 | inactive: -0.074 | inactive: 0.055 | inactive: 0.117 | inactive: 0.064 | inactive: 0.091 | inactive: 0.09 | inactive: -0.077
5 | ANAPC16 (UniProt Q96DE5) | inactive: -0.326 | inactive: -0.164 | inactive: -0.052 | inactive: 0.029 | inactive: -0.206 | inactive: -0.023 | inactive: 0.009 | inactive: 0.023 | inactive: -0.06 | inactive: -0.024
6 | ARFGAP1 (UniProt Q8N6T3) | inactive: -0.036 | inactive: -0.033 | inactive: -0.073 | inactive: -0.052 | inactive: 0.041 | inactive: 0.006 | inactive: 0.056 | inactive: 0.063 | inactive: -0.092 | inactive: 0.035
7 | ARF4 (UniProt P18085) | inactive: -0.011 | inactive: 0.025 | inactive: -0.082 | inactive: -0.06 | inactive: -0.002 | inactive: -0.024 | inactive: 0.041 | inactive: -0.017 | inactive: -0.069 | inactive: -0.004
8 | AP1G1 isoform 2 (UniProt O43747) | inactive: -0.032 | inactive: -0.032 | inactive: -0.08 | inactive: -0.021 | inactive: 0.025 | inactive: 0.092 | inactive: 0.055 | inactive: 0.111 | inactive: -0.051 | inactive: -0.01
9 | ANKMY2 (UniProt Q8IV38) | inactive: 0.025 | inactive: -0.054 | inactive: -0.075 | inactive: -0.049 | inactive: 0.042 | inactive: 0.053 | inactive: 0.062 | inactive: 0.013 | inactive: -0.058 | inactive: -0.006
10 | APOL2 (UniProt J3KQL8) | inactive: -0.076 | inactive: -0.122 | inactive: -0.062 | inactive: -0.039 | inactive: 0.012 | inactive: -0.111 | inactive: -0.083 | inactive: -0.032 | inactive: 0.022 | inactive: -0.006
11 | ANXA1 (UniProt P04083) | inactive: -0.029 | inactive: -0.08 | inactive: -0.14 | inactive: -0.085 | inactive: 0.114 | inactive: 0.055 | inactive: 0.036 | inactive: 0.11 | inactive: -0.027 | inactive: 0.029
12 | ANP32E (UniProt Q9BTT0) | inactive: 0.029 | inactive: -0.043 | inactive: 0.014 | inactive: 0.063 | inactive: 0.016 | inactive: 0.01 | inactive: 0.116 | inactive: 0.083 | inactive: -0.233 | inactive: -0.036
13 | APMAP (UniProt Q9HDC9) | inactive: 0.006 | inactive: -0.02 | inactive: -0.071 | inactive: -0.016 | inactive: -0.025 | inactive: -0.035 | inactive: 0.012 | inactive: 0.001 | inactive: -0.008 | inactive: -0.017
14 | APEX1 (UniProt P27695) | inactive: -0.046 | inactive: -0.029 | inactive: -0.088 | inactive: -0.089 | inactive: 0.033 | inactive: 0.038 | inactive: 0.061 | inactive: -0.068 | inactive: -0.111 | inactive: 0.05
15 | ARAF (UniProt P10398) | inactive: -0.059 | inactive: 0.196 | inactive: -0.119 | inactive: 0.011 | inactive: 0.062 | inactive: 0.055 | inactive: 0.098 | inactive: 0.048 | inactive: 0.017 | inactive: -0.096
16 | ANAPC4 isoform 3 (UniProt Q9UJX5) | inactive: -0.03 | inactive: -0.038 | inactive: -0.042 | inactive: -0.021 | inactive: 0 | inactive: -0.035 | inactive: 0.042 | inactive: 0.025 | inactive: -0.031 | inactive: -0.055
17 | API5 isoform 2 (UniProt Q9BZZ5) | inactive: 0.012 | inactive: 0.043 | inactive: -0.065 | inactive: -0.092 | inactive: -0.03 | inactive: 0.075 | inactive: -0.004 | inactive: 0.007 | inactive: -0.103 | inactive: 0.004
18 | AP3S1 (UniProt Q92572) | inactive: 0.001 | inactive: 0.015 | inactive: -0.03 | inactive: -0.02 | inactive: 0.027 | inactive: 0.016 | inactive: 0.041 | inactive: 0 | inactive: -0.004 | inactive: -0.056
19 | APOBEC3C (UniProt Q9NRW3) | inactive: 0 | inactive: -0.075 | inactive: 0.156 | inactive: 0.025 | inactive: -0.006 | inactive: -0.309 | inactive: -0.066 | inactive: 0.152 | inactive: 0.213 | inactive: -0.19
20 | APOO (UniProt Q9BUR5) | inactive: 0.021 | inactive: 0 | inactive: -0.035 | inactive: -0.037 | inactive: 0.007 | inactive: 0.108 | inactive: -0.003 | inactive: 0 | inactive: -0.007 | inactive: 0.017
21 | APOA1 (UniProt P02647) | inactive: -0.094 | inactive: 0.048 | inactive: 0.111 | inactive: 0.015 | inactive: -0.088 | inactive: 0.094 | inactive: 0.039 | inactive: 0.083 | inactive: -0.008 | inactive: 0.148
22 | ARHGAP45 isoform 2 (UniProt Q92619) | inactive: -0.142 | inactive: -0.078 | inactive: -0.162 | inactive: 0.076 | inactive: -0.034 | inactive: 0.058 | inactive: -0.06 | inactive: 0.069 | inactive: -0.054 | inactive: -0.032
23 | APOM (UniProt O95445) | inactive: -0.151 | inactive: -0.028 | inactive: 0.047 | inactive: 0.04 | inactive: -0.009 | inactive: 0.068 | inactive: -0.042 | inactive: 0.106 | inactive: -0.016 | inactive: 0.435
24 | APOB (UniProt P04114) | inactive: -0.206 | inactive: -0.387 | active: -0.621 | active: -0.806 | inactive: 0.042 | inactive: -0.009 | inactive: 0.015 | inactive: 0.068 | inactive: 0.001 | inactive: 0.056
25 | ANKRD46 (UniProt Q86W74) | inactive: -0.021 | inactive: 0.038 | inactive: -0.188 | inactive: 0.008 | inactive: -0.031 | inactive: 0.05 | inactive: 0.157 | inactive: 0.151 | inactive: -0.021 | inactive: 0.068
26 | ARID1A (UniProt O14497) | inactive: 0.163 | inactive: -0.095 | inactive: -0.037 | inactive: -0.107 | inactive: 0.115 | inactive: 0.011 | inactive: 0.216 | inactive: 0.012 | inactive: 0.104 | inactive: 0.402
27 | AP1M1 (UniProt Q9BXS5) | inactive: -0.014 | inactive: -0.043 | inactive: -0.048 | inactive: 0.006 | inactive: -0.016 | inactive: 0.019 | inactive: -0.005 | inactive: 0.037 | inactive: 0.027 | inactive: -0.085
28 | AP2A2 isoform 2 (UniProt O94973) | inactive: -0.155 | inactive: 0.052 | inactive: -0.003 | inactive: -0.013 | inactive: 0.002 | inactive: 0.034 | inactive: -0.023 | inactive: -0.016 | inactive: -0.113 | inactive: -0.156
29 | ANAPC7 (UniProt Q9UJX3) | inactive: 0.028 | inactive: -0.02 | inactive: -0.064 | inactive: 0.093 | inactive: -0.001 | inactive: 0.087 | inactive: 0.017 | inactive: 0.008 | inactive: -0.029 | inactive: -0.068

Some values from the entries so far.
log2 fold change [1] with ARHGAP45 isoform 2 (UniProt Q92619) is entered as inactive: -0.142
log2 fold change [5] with APOO (UniProt Q9BUR5) is entered as inactive: -0.007
